Earlier results in patent US20180228747A1, “RECTAL TOPICAL LIPOGEL COMPRISING AN ANESTHETIC AGENT AND A NON-STEROIDAL ANTI-INFLAMMATORY AGENT FOR PAIN RELIEF” (priority 2015, published 2018).
Some of these results come from one statement about several compounds together.

Conditions: local anesthetic, even with the use of epinephrine

For `CCCCN1CCCCC1C(=O)Nc1c(C)cccc1C` (centres unmarked) [Bupivacaine], the “established duration of action” value is listed as “less than 12 hours”.
For `CCN(CC)CC(=O)Nc1c(C)cccc1C` [lidocaine, Lidocaine], the “established duration of action” value is listed as “less than 12 hours”.
